Out of some 200,000 compounds screened, about 25 (0.01%) were called active. Inconclusive means that the source gave no clear call. Such entries were picked first, then a sample of the others. The call rests on the fitted dose curve; in most records, active means well fitted inhibition curve with a large enough effect in the signal ratio, with a control signal flat (not every such curve was filed as active); inconclusive means small, poorly fitted or top-dose-only effect, or effect the other way, or a change in a side signal; inactive means flat fitted curve, though single readings scatter; the % refers to the signal ratio. Where the call is inconclusive, the potency comes from a doubtful curve fit.
Experiment: qHTS Assay for Modulators of Lamin A Splicing
Details: HeLa LMNA splicing GFP/RFP minigene ratio, 48 h; ratio change, negative = inhibition: at 46.1 µM (top of the series) unless noted
In short: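 S3 HeLa cells stably expressing lamin A-EGFP splicing minigene plus DsRed2, 600 cells/well, 48 h compound exposure at 37C. Laser-scanning cytometry; analysed as GFP (500-530 nm)/RFP (575-640 nm) total intensity ratio; 0.5% DMSO vehicle.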
On the % scale 0 is the no-effect control and ±100 the full control effect; potency means the concentration at half of the fitted maximal effect.

SMILES | ratio change, negative = inhibition | Potency
CCCCn1c(NC(=O)c2ccc(Br)o2)c(C(=O)OCC)c2nc3ccccc3nc21 | inconclusive: 7.51% | 
CCOC(=O)CNC(=O)CNC(=O)C(Cc1ccc(N(CCCl)CCCl)cc1)NC(C)=O (stereo not drawn) |  | inconclusive: 2.82 µM [inhibitor, single point]
CCNC(C)Cc1cccc(C(F)(F)F)c1 (stereo not drawn) |  | inconclusive: 20 µM [inhibitor, single point]
O=C(Cn1cnc2ccccc2c1=O)NCCC(=O)N1CCC2(CC1)OCCO2 | inconclusive: 15.8% | 
CS(=N)(=O)CC[C@H](N)C(=O)O (stereo partly drawn) | inconclusive: -9.05% | 
Cc1cccc(-n2c(/C=C/c3ccc([N+](=O)[O-])o3)nc3ccccc3c2=O)c1 | inconclusive: 0.776% | 
Cc1cc(C=C2C(=O)N(C)C(=S)N(C)C2=O)c(C)n1C1CCCC1 | inactive | 
CN(C)c1ccc(CN2CCc3nc(N4CCN(c5ccccn5)CC4)ncc3C2)cc1 |  | inconclusive: 35.5 µM [inhibitor, single point]
C1CCC(NC2CCCCC2)CC1 | inconclusive: -14.5% | 
C[C@@]12C=CC(=O)C=C1CCC1C2CC[C@]2(C)C(=O)CCC12 (stereo partly drawn) | inconclusive: -15.9% | 
OC(c1ccc(F)cc1)C(c1ccccc1)N1CCOCC1 (stereo not drawn) | inconclusive: 15.4% | 
CCCN(CCC)CCc1ccc(O)c(O)c1 | inconclusive: -37% | 
Nc1c(C(=O)NCc2ccco2)c2nc3ccccc3nc2n1Cc1ccc(F)cc1 | inconclusive: -30.5% | 
COc1ccc(CCNCc2ccc(OC)c(OC)c2OC)cc1 | inactive | 
COC(=O)C1=C(C)NC(C)=C(C(=O)OC)C1c1ccccc1[N+](=O)[O-] | inactive | 
CC(C)c1oc(=O)cc2c1[C@@H](O)[C@H]1OC(=O)[C@@]3(C)C[C@@H](O)[C@@H](O)[C@@]2(C)C13 (stereo partly drawn) | inconclusive: -67.7% | 
Ic1ccccc1CNC1C2CCN(CC2)C1C(c1ccccc1)c1ccccc1 (stereo not drawn) |  | inconclusive: 35.5 µM [cytotoxic, single point]
CCc1cccc(C)c1N(C(=O)CCl)C(C)COC (stereo not drawn) | inconclusive: -0.0062% | 
NP(=O)(Oc1ccc(Cl)cc1)Oc1ccc(Cl)cc1 | inconclusive: -18.7% [at 46 µM] | 
O=C(c1csc2c1CCCCC2)N1CCC2(CC1)OCCO2 | inactive | 
O=C(CSC1c2ccccc2-c2ccccc21)N/N=C/c1ccccc1O |  | inconclusive: 14.1 µM [falling, partial curve]
COc1ccc(CC(=O)Nc2ccc3c(C(F)(F)F)cc(=O)oc3c2)cc1OC | inactive | 
CC/C(=C\C=C\[C@@H]1C=C[C@@H]2CCC[C@H]2[C@@H]1C(=O)c1ccc[nH]1)[C@@H]1O[C@@H]([C@@H](C)C(=O)O)CC[C@@H]1C |  | inconclusive: 2.82 µM [fluorescent, full curve, poor fit]

Part of the list above, tab-delimited.
SMILES	ratio change, negative = inhibition	Potency
C1CCC(NC2CCCCC2)CC1	inconclusive: -14.5%	
C[C@@]12C=CC(=O)C=C1CCC1C2CC[C@]2(C)C(=O)CCC12 (stereo partly drawn)	inconclusive: -15.9%	
OC(c1ccc(F)cc1)C(c1ccccc1)N1CCOCC1 (stereo not drawn)	inconclusive: 15.4%	
CCCN(CCC)CCc1ccc(O)c(O)c1	inconclusive: -37%	
